Measured values from publication PMC5227552.
These are yes or no findings as the source states them, for the method shown. In cells and extracts the contact can be indirect.

Amino acid sequences for entries named in this document (tags omitted). Residues count along the entry.
UniProt P42081, residues 24-329: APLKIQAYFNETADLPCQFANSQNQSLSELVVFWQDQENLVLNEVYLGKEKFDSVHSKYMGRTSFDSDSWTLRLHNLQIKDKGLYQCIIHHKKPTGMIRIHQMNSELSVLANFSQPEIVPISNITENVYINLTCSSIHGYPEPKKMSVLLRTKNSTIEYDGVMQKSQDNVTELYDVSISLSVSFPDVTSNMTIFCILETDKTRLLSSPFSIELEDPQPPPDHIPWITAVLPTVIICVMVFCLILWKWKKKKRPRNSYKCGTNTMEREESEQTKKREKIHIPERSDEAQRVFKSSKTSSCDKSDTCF
UniProt Q99IB8, residues 384-750: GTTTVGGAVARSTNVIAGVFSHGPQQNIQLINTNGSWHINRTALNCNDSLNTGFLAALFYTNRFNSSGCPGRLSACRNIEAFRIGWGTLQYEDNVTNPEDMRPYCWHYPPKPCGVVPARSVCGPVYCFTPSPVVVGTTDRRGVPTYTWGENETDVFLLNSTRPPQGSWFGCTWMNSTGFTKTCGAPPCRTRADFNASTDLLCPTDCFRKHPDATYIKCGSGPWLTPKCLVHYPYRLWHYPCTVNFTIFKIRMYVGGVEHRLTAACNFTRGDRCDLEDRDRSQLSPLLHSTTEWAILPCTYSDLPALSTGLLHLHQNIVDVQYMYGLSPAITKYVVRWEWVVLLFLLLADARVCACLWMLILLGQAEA

Biological target: Full-length B7.2 overexpressed in 293T cells (UniProt P42081)
Assay: co-IP; 293T cells overexpressing full-length B7.2, 24 h later incubated 24 h with SB HCVpp or JFH1 HCVpp; lysates immunoprecipitated with anti-B7.2, immunoblot

## E2 of HCV JFH1 strain carried on HCVpp (JFH1 HCVpp) (from UniProt Q99IB8 384-750)
  binding: no binding
